# Assay results as given in PMC9505842.
# Legend:
# [1] = target: T1, CCN1 (human (endogenous in LO2)) (UniProt O00622); assay: co-IP; IP with anti-CCN1 antibody (or control IgG) at 4 °C overnight, protein A/G-Sepharose beads 1 h; IB for integrins α5 and β1; LO2 hepatocyte lysates in RIPA buffer, with or without FFA (1 mM) for 24 h
# T1 sequence: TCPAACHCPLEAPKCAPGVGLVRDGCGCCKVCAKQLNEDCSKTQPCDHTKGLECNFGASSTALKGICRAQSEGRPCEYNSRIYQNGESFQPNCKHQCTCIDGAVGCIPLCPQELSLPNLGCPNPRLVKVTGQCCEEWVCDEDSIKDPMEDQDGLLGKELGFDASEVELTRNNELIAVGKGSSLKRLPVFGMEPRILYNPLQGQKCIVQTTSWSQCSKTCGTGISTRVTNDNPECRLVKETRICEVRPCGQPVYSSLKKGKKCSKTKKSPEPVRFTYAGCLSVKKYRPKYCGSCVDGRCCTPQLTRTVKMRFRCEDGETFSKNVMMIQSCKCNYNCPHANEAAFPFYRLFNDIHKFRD
# [2] = target: T2, CCN1 (mouse liver) (mouse (endogenous in liver)) (UniProt P18406); assay: co-IP; IP with anti-CCN1 antibody, IB for integrins α5 and β1; whole lysates of mouse livers (legend: db/m and db/db mice, 8 weeks old; text: ND vs. HFD mice)
# T2 sequence: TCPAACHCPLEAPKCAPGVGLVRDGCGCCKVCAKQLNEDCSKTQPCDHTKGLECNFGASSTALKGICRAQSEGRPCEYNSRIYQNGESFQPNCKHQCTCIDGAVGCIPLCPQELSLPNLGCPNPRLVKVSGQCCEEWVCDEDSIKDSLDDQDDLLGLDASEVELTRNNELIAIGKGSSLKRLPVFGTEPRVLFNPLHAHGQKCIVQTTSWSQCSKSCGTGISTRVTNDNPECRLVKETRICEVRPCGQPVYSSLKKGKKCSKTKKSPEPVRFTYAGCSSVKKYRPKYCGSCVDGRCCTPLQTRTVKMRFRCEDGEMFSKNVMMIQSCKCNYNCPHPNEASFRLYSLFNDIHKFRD
binding [1],binding [2],Substance
binds,–,integrin α5β1 (human (endogenous in LO2)) (complex)
–,binds,integrin α5β1 (mouse liver) (complex)

# These are yes or no findings as the source states them, for the method shown. Binding seen in cells or lysates may run through a third protein. Binding calls can cover weak binding; strength is not graded here.
